For one substance, binding results are on record in PMC10185773, “Interactions of the protein tyrosine phosphatase PTPN3 with viral and cellular partners through its PDZ domain: insights into structural determinants and phosphatase activity” (Frontiers in Molecular Biosciences, 2023).

The chains behind the UniProt entries cited, without tags or fusion partners. Where a name states a change or a piece, a line headed by the entry shows the natural chain unless it says otherwise. Residues count along the entry.
UniProt P26045, residues 488-913: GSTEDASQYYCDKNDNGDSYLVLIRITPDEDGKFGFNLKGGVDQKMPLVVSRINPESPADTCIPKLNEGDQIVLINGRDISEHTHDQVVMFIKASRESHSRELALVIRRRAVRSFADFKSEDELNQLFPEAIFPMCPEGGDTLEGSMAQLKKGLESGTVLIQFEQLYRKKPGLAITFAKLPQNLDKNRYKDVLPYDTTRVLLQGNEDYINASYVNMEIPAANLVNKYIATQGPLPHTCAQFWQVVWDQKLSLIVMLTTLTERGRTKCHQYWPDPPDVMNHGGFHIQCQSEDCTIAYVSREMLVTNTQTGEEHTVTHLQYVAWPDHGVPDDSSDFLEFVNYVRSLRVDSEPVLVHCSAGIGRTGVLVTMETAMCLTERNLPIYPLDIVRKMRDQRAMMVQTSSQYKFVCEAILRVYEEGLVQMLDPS

The target in assay [1] is PTPN3-Bidomain (PDZ and PTP domains connected by the linker) (human) (UniProt P26045). The assay can be described thus: AUC; sedimentation velocity, 20°C, 14 μM protein, 42,000 rpm, 17 h; continuous c(S) model; both purified.
The target is the same in assay [2]. The assay can be described thus: SEC-SAXS; online HPLC (Superdex 75 increase 5 x 150) at 25°C into the SAXS cell, SWING beamline; free Bidomain; both purified. Background: Size exclusion chromatography separates by hydrodynamic size, large species first.

No constants are given. Whether binding was seen depends on the method and setting.

Regarding “PTPN3-Bidomain (PDZ and PTP domains connected by the linker) (from UniProt P26045-1 488-913) (domain or fragment)”, the binding result is recorded as “no binding (tested: 14 μM)” in assay [1] and “no binding” in assay [2].
